Results published in patent EP2348142B1, “Method and composition for removing scale deposits formed on a metal surface within a steam generating system” (Westinghouse Electric Company LLC, priority 2010, dated 2011).

Details: mean over coupons (six DMA, two TMAH); for corrosion rate / dissolution rate, following three weeks: second testing period

Structure (SMILES) | corrosion rate / dissolution rate, first week | corrosion rate / dissolution rate, following three weeks
CNC [DMA, dimethylamine, reference compound] | 0.992 ± 0.084 µm•year^-1 | 1.001 ± 0.052 µm•year^-1
C[N+](C)(C)C.[OH-] [TMAH, Tetramethylammonium hydroxide] | 0.290 ± 0.045 µm•year^-1 | 0.043 ± 0.018 µm•year^-1
